The structures appear in SMILES notation. The list shows a part of the results.

Chains of the proteins cited; added tags and fusions are not shown.
UniProt P51452, whole entry: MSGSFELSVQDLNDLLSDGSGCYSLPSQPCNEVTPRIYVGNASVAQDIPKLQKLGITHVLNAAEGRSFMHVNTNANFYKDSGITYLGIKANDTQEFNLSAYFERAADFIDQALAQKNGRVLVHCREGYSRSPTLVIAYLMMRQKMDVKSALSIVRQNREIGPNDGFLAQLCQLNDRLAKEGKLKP

The assay addresses Dual specificity protein phosphatase 3 (Homo sapiens) (UniProt P51452). Briefly: VHR1 phosphatase inhibitors, primary screen, biochemical, absorbance, uHTS (AID 1654). Particulars: recombinant VHR phosphatase, pNPP absorbance; measured here: average of confirmation repeats; at 13.3 µM; stronger effect = higher value.
Broadly, the inhibition is the drop in the measured response relative to a control, in per cent. On to `Nc1cccc2c([As](=O)(O)O)cccc12`, for which the inhibition is -0.9%.

These data come from PubChem BioAssay AID1654 (Sanford-Burnham Center for Chemical Genomics, 2009).
